Measured values: PubChem BioAssay AID1688 (National Center for Advancing Translational Sciences (NCATS), 2009)
Among all 220,000 compounds or so, about 2,400 (1.1%) were called active. The shares of active, inactive and inconclusive entries below differ from those in the screen. The call rests on the fitted dose curve; in most records, active means well fitted inhibition curve with a large enough effect; inconclusive means small, poorly fitted or top-dose-only effect, or effect the other way; inactive means no such curve, though single readings can be large or run the other way. Potencies beside an inconclusive call are fits to weak or partial responses and may not hold up.

assay: qHTS Multiplex Assay to Identify Dual Action Probes in a Cell Model of Huntington: Aggregate Formation (GFP); details: PC12 HttQ103-GFP aggregates, Acumen cytometry, 40 h; activity change, negative = inhibition: at 46.1 µM (top of the series) unless noted; further: nearly all actives have a fitted effect of over 60% in size
Procedure, shortened: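 Aggregate formation scored by laser-scanning cytometer (488 excitation, 500–530 emission) in lysed PC12 cells expressing Q103-GFP after 100 nM tebufenozide induction; library tested in dose series, with ATPLite reagent added in the multiplex.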
On the % scale 0 is the no-effect control and ±100 the full control effect; potency means the concentration at half of the fitted maximal effect.

Compound | activity change, negative = inhibition | Potency
COc1ccc(/C=N/c2c(-c3ccc(OC)cc3)nc3n2CCS3)cc1 | inactive: -1.03% | 
CCN(/C=N/S(=O)(=O)c1ccc(Cl)cc1)CC | inactive: -2.49% [at 9.22 µM] | 
COc1ccc(CNC(=O)COC(=O)CC2CC3CCC2C3)cc1OC (configuration not stated) | inactive: -16.7% | 
Cc1ccc(C(=O)N[C@@H](C)CN2C3=NC[C@H](C)N3C[C@H]2Cc2ccc(O)cc2)cc1Br | inactive: 22.2% [at 9.22 µM] | 
Oc1ccccc1-c1nnc(SCCN2CCOCC2)n1Cc1ccccc1 |  | inconclusive: 2.51 µM [inhibitor, full curve]
O=C(CCN1CCCCCC1)c1ccccc1 | inactive: -18.2% | 
CCC(=O)Nc1ccc2nc(C3CC3)n(Cc3ccc(C(C)(C)C)cc3)c(=O)c2c1 | inactive: -12.1% [at 9.22 µM] | 
Cc1ccc(NC(=O)CSC2=C(C#N)C(c3ccco3)C3=C(CCCC3=O)N2)cc1 (configuration not stated) |  | inconclusive: 11.2 µM [inhibitor, partial curve]
O=C(NC(Nc1ncc(S(=O)(=O)c2ccc([N+](=O)[O-])cc2)s1)(C(F)(F)F)C(F)(F)F)c1ccc(Cl)cc1 |  | inconclusive: 0.891 µM [inhibitor, full curve, poor fit]
O=S(=O)(NC1CCCCC1)c1ccc(F)c2ccccc12 |  | inconclusive: 35.5 µM [inhibitor, single point]
O=C(CCS(=O)(=O)c1cccc2nsnc12)N1CCN(C(=O)c2ccco2)CC1 | inactive: 25% | 
CCCc1nc(NCc2ccncc2)c2nnn(Cc3ccccc3F)c2n1 |  | inconclusive: 11.2 µM [inhibitor, partial curve]
Cc1ccc(-n2c(C)cc(C3=NNC(=NC4CC4)SC3)c2C)cc1C |  | inconclusive: 35.5 µM [inhibitor, single point]
CC(=O)c1ccccc1OCC(O)CN1CCN(C(c2ccccc2)c2ccccc2)CC1 (configuration not stated) |  | inconclusive: 3.55 µM [inhibitor, single point]
CC1CC(C)CN(CC(=O)Nc2ccc3c(c2)OCCO3)C1 (configuration not stated) | inactive: -8.82% | 
O=C(CCl)N(c1ccc(Cl)cc1)c1c[nH]c2ccccc12 |  | inconclusive: 35.5 µM [inhibitor, single point]
CC(=O)Nc1cnc(NC(=O)c2cccc(F)c2)cc1C | inactive: -13.3% | 
COc1ccccc1NC(=O)C1=C(C)Nc2nnnn2C1c1ccccn1 (configuration not stated) | inactive: 27.8% | 
Cc1ccc(CNC(=O)C(Cc2ccccc2)NS(=O)(=O)c2cccs2)cc1 (configuration not stated) |  | inconclusive: 4.47 µM [inhibitor, single point]
N#C/C(=C\c1ccco1)C(=O)NCc1ccccc1 | inactive: 11.4% | 
Cc1nc2c(C(=O)NCCC(C)C)c[nH]n2c(=O)c1Cc1ccccc1F |  | inconclusive: 25.1 µM [inhibitor, single point]
CN1C(=O)/C(=C\c2ccccc2)Sc2ccc(C(=O)N3CCN(c4ccccn4)CC3)cc21 |  | inconclusive: 11.2 µM [inhibitor, single point]
CCc1c(C(=O)Nc2ccc(OC)cc2)[nH]c(C)c1C(C)=O | inactive: -5.8% | 
O=[N+]([O-])c1cc(Cl)ccc1N1CCN(c2cccc(C(F)(F)F)c2)CC1 |  | inconclusive: 5.62 µM [inhibitor, single point]

Ordered by number of heavy atoms (largest number first): three of the compounds above
Compound | activity change, negative = inhibition | Potency
O=C(NC(Nc1ncc(S(=O)(=O)c2ccc([N+](=O)[O-])cc2)s1)(C(F)(F)F)C(F)(F)F)c1ccc(Cl)cc1 |  | inconclusive: 0.891 µM [inhibitor, full curve, poor fit]
Oc1ccccc1-c1nnc(SCCN2CCOCC2)n1Cc1ccccc1 |  | inconclusive: 2.51 µM [inhibitor, full curve]
COc1ccccc1NC(=O)C1=C(C)Nc2nnnn2C1c1ccccn1 (configuration not stated) | inactive: 27.8% | 

As entered above.
`Oc1ccccc1-c1nnc(SCCN2CCOCC2)n1Cc1ccccc1` – Potency: inconclusive: 2.51 µM [inhibitor, full curve]
`Cc1ccc(C(=O)N[C@@H](C)CN2C3=NC[C@H](C)N3C[C@H]2Cc2ccc(O)cc2)cc1Br` – activity change, negative = inhibition: inactive: 22.2% [at 9.22 µM]

Later entries

Compound | activity change, negative = inhibition | Potency
COC(=O)c1ccccc1NC(=O)Nc1cnccn1 |  | inconclusive: 0.562 µM [inhibitor, partial curve, poor fit]
CC(=O)c1cccc(NC(=O)COC(=O)c2cccc(N3C(=O)c4ccccc4C3=O)c2)c1 | inactive: 10.2% | 
COc1ccc(C2CC(=O)N3C(=C2C#N)SCC3(O)c2ccccc2)cc1 (configuration not stated) |  | inconclusive: 8.91 µM [inhibitor, single point]
O=C(CSc1ncnc2c1cnn2CCO)Nc1cccc(C(F)(F)F)c1 | inactive: -5.09% | 
COCCn1c(CN2CCN(c3cccc(Cl)c3)CC2)nc2c1c(=O)n(C)c(=O)n2C |  | active: 20 µM
Cc1cc(C(C)(C)C)oc1C(=O)N(CC(=O)NC1CCCC1)c1cccc(C(F)(F)F)c1 |  | inconclusive: 28.2 µM [inhibitor, single point]
O=C(COC(=O)c1ccc([N+](=O)[O-])o1)Nc1nc2ccccc2s1 | inactive: 4.82% [at 9.22 µM] | 
Cc1occc1C(=O)Nc1cccnc1 |  | active: 22.4 µM
CCC(=O)Nc1sc(Cc2ccccc2)c(C)c1C(N)=O | inactive: -22.6% [at 9.22 µM] | 
Cn1c(=O)[nH]c(=O)c2c1nc(N1CCCCC1)n2CCSc1nc2ccccc2o1 | inactive: 9.32% | 
CCOC(=O)c1ccc(CNC(=O)c2cc(C(C)(C)C)oc2C)o1 | inactive: -7.76% | 
COC(=O)C1=COC(C)C2CN3CCc4c([nH]c5ccccc45)C3CC12 (configuration not stated) |  | active: 11.2 µM
Cc1[nH]n(-c2ccccc2)c(=O)c1/C=N\NC(=O)C1COc2ccccc2O1 (configuration not stated) |  | inconclusive: 6.31 µM [inhibitor, full curve]
O=C(c1ccc(Cl)c(Cl)c1)N1CCC(=O)N(C(COCc2cccc(Cl)c2)Cc2ccccc2)CC1 (configuration not stated) |  | inconclusive: 35.5 µM [inhibitor, single point]
Cc1ccc(C(=O)NC(=C(Cl)Cl)S(=O)(=O)c2ccccc2)cc1 |  | inconclusive: 3.16 µM [activator, partial curve]
C=CCNC(=O)CCCOc1ccc(C)cc1 |  | inconclusive: 35.5 µM [inhibitor, single point]
CCCCNC(=O)/C(C#N)=C/c1cccnc1 | inactive: 5.57% | 
N#C/C(=C/c1ccc(N2CCCCC2)o1)C(=O)Nc1ccc2ccccc2c1 |  | active: 2.51 µM
Cc1ccc(C)n1CCN1CCN(CC(=O)Nc2ccc(S(N)(=O)=O)cc2)CC1 |  | inconclusive: 35.5 µM [activator, partial curve, poor fit]
O=C(CCn1cnc2ccccc21)N/N=C/c1ccccc1O |  | active: 10 µM
Cc1ccccc1-c1nc2ccccc2[nH]1 |  | inconclusive: 10 µM [inhibitor, partial curve]
CC(=O)Nc1ccc(S(=O)(=O)NCCSCc2ccc(Cl)cc2Cl)cc1 |  | inconclusive: 35.5 µM [inhibitor, single point]
Cc1cccc(OCc2nc(C#N)c(N3CC(C)CC(C)C3)o2)c1 (configuration not stated) |  | inconclusive: 35.5 µM [inhibitor, single point]
CC(=O)Cc1nsc(NC(=O)c2ccc(-c3ccc(Cl)c(Cl)c3)o2)n1 |  | inconclusive: 35.5 µM [inhibitor, single point]

Compound | activity change, negative = inhibition | Potency
O=C(CN1CCC(n2nnc3cc(C(F)(F)F)ccc32)CC1)Nc1ccc2c(c1)CCC2 |  | inconclusive: 35.5 µM [inhibitor, single point]
O=C1CCc2cc(S(=O)(=O)NCCC(=O)N3CCN(c4cccc(Cl)c4)CC3)ccc2N1 |  | inconclusive: 35.5 µM [inhibitor, partial curve]
C=C(C)C(=O)Nc1cccc(C2=NOC3(C2)C[C@@H](C(N)=O)N(C(=O)[C@H]2CCC(=O)N2)C3)c1 (some centres not stated) |  | inconclusive: 0.0891 µM [inhibitor, full curve, poor fit]
Cc1sc2ccccc2[n+]1CC(=O)O | inactive: 8.36% [at 9.22 µM] | 
Brc1ccc(-c2nc(N/N=C/c3cccnc3)c3ccccc3n2)cc1 |  | active: 10 µM
O=C(NC(=S)Nc1ccccc1Cl)c1csnn1 | inactive: -1.17% | 
Cc1cc(C(=O)COc2ccccc2Cl)c(C)n1-c1ccc2c(c1)OCO2 |  | inconclusive: 15.8 µM [inhibitor, single point]
Cn1c2ccccc2c2cc(C(=O)NNC(=O)CCl)sc21 |  | active: 15.8 µM
CN(CC(=O)NC1CCCc2ccccc21)C1CCCCC1 (configuration not stated) |  | inconclusive: 31.6 µM [inhibitor, single point]
CCCOc1ccc(NC(=O)CC2C(=O)N(CC)C(=S)N2CCCN2CCN(Cc3ccccc3)CC2)cc1 (configuration not stated) |  | inconclusive: 25.1 µM [inhibitor, partial curve]
CCOC(=O)c1nnn(-c2nonc2N)c1CNc1ccc(C)c(Br)c1 |  | inconclusive: 3.55 µM [inhibitor, single point]
COc1ccc(CCN2C(=S)NC3CC2(C)Oc2ccc([N+](=O)[O-])cc23)cc1OC (configuration not stated) |  | active: 10 µM
O=C(Nc1nc(-c2cc(F)ccc2F)cs1)c1ccccn1 |  | inconclusive: 22.4 µM [inhibitor, single point]
O=C(/C=C/c1cccs1)Nc1cccc(NC(=O)/C=C/c2cccs2)n1 |  | inconclusive: 35.5 µM [inhibitor, single point]
CC(C)/C=N/NC(=O)c1cc(Br)ccc1O |  | active: 8.91 µM
CCc1cccc(CC)c1NC(=S)NCCc1c(C)[nH]c2ccccc12 |  | inconclusive: 35.5 µM [inhibitor, single point]
O=C(NN1C(=O)c2ccccc2NC1c1ccc([N+](=O)[O-])o1)c1ccccc1 (configuration not stated) |  | inconclusive: 11.2 µM [activator, partial curve]
CN1/C(=C\C(=O)Nc2ccc(F)cc2)C(C)(C)c2ccccc21 |  | active: 6.31 µM
CC(C)(C)NC(=O)CSc1nc2ccc(Nc3nc(N4CCOCC4)nc(N4CCOCC4)n3)cc2s1 |  | inconclusive: 31.6 µM [inhibitor, single point]
COCCN1CCN(Cc2cn[nH]c2-c2cc3ccccc3o2)CC1 | inactive: -11.6% [at 9.22 µM] | 
NS(=O)(=O)c1ccc(CNC(=O)NC2(c3ccccc3)CC2)cc1 |  | inconclusive: 3.16 µM [activator, partial curve]
Cc1ccc(NC(=O)CNc2ccccc2CN(C)C2CCCCC2)cc1 | inactive: -9.8% | 
COC(=O)c1ccc(S(N)(=O)=O)o1 |  | inconclusive: 35.5 µM [activator, single point]
NC(=O)c1ccccc1N/C=C/C(=O)c1ccc(F)cc1 | inactive: -17.1% | 
